Entries after “also recorded” stand apart in the source; their conditions may differ.
System: E. coli K1 strain RS218
Assay: Mouse model of experimental hematogenous E. coli meningitis (cPLA2α-/- and wild type BALB/c mice)
Format: in vivo
Conditions: i.v. 1.2 μg/mouse in 50 μl PBS 30 mins before bacterial injection
Experimental: cPLA2α−/− and wild type mice, either male or female, […] that had been backcrossed on the BALB/c strain for >10 generations were used^14. All procedures and handling techniques were approved by The Johns Hopkins Animal Care and Use Committee.
Each mouse received 1×10^7 CFU of E. coli K1 strain RS218 in 100 μl PBS via the tail vein. One hour later, mouse chest was cut open, and blood from right ventricle was collected and plated for bacteria counts, which were expressed as CFUs/ml of blood. The mouse was then perfused with a mammalian Ringer's solution by transcardiac perfusion through a 23-gauge needle inserted into the left ventricle of the heart under the perfusion pressure of about 100 mmHg. The perfusate exited through a cut in the right atrium. […] The brains were removed, weighed and homogenized in 2 ml RPMI followed by plating for bacterial counts, which were expressed as CFUs/gm. Since E. coli K1 penetration into the brain is shown to depend on the magnitude of bacteremia^5,7, bacterial penetration into the brain was also expressed as [(brain CFUs per gm)/(blood CFUs per ml)]×100. Kidneys and spleens were also removed, homogenized and plated for determination of bacterial counts, which were expressed as CFUs/gm. […]

## CCCCC/C=C\C/C=C\C/C=C\C/C=C\CCCC(=O)O [arachidonic acid, Arachidonic acid]
  bacterial counts in the blood, spleens and kidneys: did not affect the bacterial counts in the blood, spleens and kidneys; also recorded: did not affect the bacterial counts in the blood, kidney and spleen

From patent publication US8980917B2, “Methods for treating or preventing brain infections” (The Johns Hopkins University, priority 2008, dated 2015)
